From patent US20210393752A1, “PEPTIDES, COMPOSITIONS AND VACCINES FOR TREATMENT OF MICROSATELLITE INSTABLITY HYPERMUTATED TUMORS AND METHODS OF USE THEREOF” (Icahn School of Medicine at Mount Sinai, priority 2018, published 2021) come the findings set out here.

For this series, the system named is MHC-I complexes of HCT116 cancer cell line. Put plainly: MS/MS of peptides eluted from MHC-I complexes, PepQuery peptide spectrum match. More on the design: species or system human. Particulars: MSI-H colon cancer.

For KQNRPFFLPVY (listed as Homo sapiens), the “presentation by MHC-I (epitope eluted and identified)” value (“presentation by MHC-I” for short) is “eluted from MHC-I and identified by MS/MS”.
Regarding SLEPWIPYLH (listed as Homo sapiens), the “presentation by MHC-I” value is “eluted from MHC-I and identified by MS/MS”.
In the case of WMKSWSLRDP (listed as Homo sapiens), the “presentation by MHC-I” value was “eluted from MHC-I and identified by MS/MS”.
For the sequence YPKPFAGLFP (listed as Homo sapiens), the “presentation by MHC-I” value was “eluted from MHC-I and identified by MS/MS”.
